Record: PubChem BioAssay AID1259254 (NCATS, 2017)
Here is one part, drawn at random, of about 59,000 reagents. About 1,550 of them (2.6%) were called active. 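G2 share is only a proxy for re-replication; each gene was hit by three separate siRNAs, and active genes were retested.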 Raw values are not corrected between plates. Reagents against one gene are numbered here. The record does not give: the amount of reagent.

Purpose: 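Gene knock-downs that lead to re-replication, shown by excess G2 DNA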 (primary screen)
System: human HCT116 colorectal cancer cells
Knock-down reagent: single siRNA against human genes
Duration: 3 days
Read-out: 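Imaged Hoechst DNA stain sorts each cell into a cycle phase by DNA amount; per plate, G2 fraction set to 0% for non-targeting and 100% for GMNN siRNA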
Direction: G2 robust z-score and G2 cells, % of GMNN control: higher = more G2 cells, more excess DNA replication; raw share of cells in G2: higher = larger share of cells with G2 DNA content
Call rule: 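An siRNA counts as active if its G2 robust z-score lies at least 5 MADs above the screen median; here such calls match roughly 38% of GMNN control or more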

Gene,siRNA no.,G2 robust z-score,"G2 cells, % of GMNN control",raw share of cells in G2 (%),call
TEAD1,1,3.91,30.5,15.6,inactive
TEAD1,2,0.134,3.91,6.68,inactive
TEAD1,3,-0.221,1.41,3.62,inactive
DRC12,1,0.974,9.82,6.84,inactive
DRC12,2,0.543,6.78,5.33,inactive
DRC12,3,1.76,15.3,9.24,inactive
CUEDC2,1,0.695,7.86,8,inactive
CUEDC2,2,-0.645,-1.57,3.91,inactive
CUEDC2,3,0.598,7.17,4.59,inactive
SVOPL,1,0.937,9.56,8.72,inactive
SVOPL,2,5.17,39.4,24.7,active
SVOPL,3,1.33,12.3,9.2,inactive
CTC1,1,0.0261,3.15,5.75,inactive
CTC1,2,0.0873,3.58,5.87,inactive
CTC1,3,-0.804,-2.69,1.64,inactive
INPPL1,1,-1.17,-5.24,3.09,inactive
INPPL1,2,5.24,39.8,16.3,active
INPPL1,3,3.13,25,11,inactive
LMTK1,1,-0.995,-4.03,4.33,inactive
LMTK1,2,-0.652,-1.62,4.6,inactive
LMTK1,3,1.43,13,7.86,inactive
PIGZ,1,1.13,10.9,8.15,inactive
PIGZ,2,1.12,10.8,8.8,inactive
PIGZ,3,-0.387,0.247,5.53,inactive
SLC38A5,1,0.14,3.95,5.76,inactive
SLC38A5,2,0.207,4.43,4.39,inactive
SLC38A5,3,0.0758,3.5,4.03,inactive
COL14A1,1,0.298,5.06,5.47,inactive
COL14A1,2,-0.271,1.06,5.34,inactive
COL14A1,3,0.0464,3.29,4.3,inactive
SEPTIN11,1,0.09,3.6,5.83,inactive
SEPTIN11,2,-0.0845,2.37,7.47,inactive
SEPTIN11,3,3.75,29.4,15,inactive
FREM3,1,1.11,10.8,11.1,inactive
FREM3,2,3.1,24.8,13.8,inactive
FREM3,3,-0.548,-0.886,4.33,inactive
ENTPD6,1,-0.203,1.54,5.29,inactive
ENTPD6,2,-0.89,-3.3,3.31,inactive
ENTPD6,3,-0.285,0.96,3.79,inactive
LINC02297,1,0.32,5.22,5.64,inactive
LINC02297,2,0.00141,2.98,4.55,inactive
LINC02297,3,-0.267,1.09,3.49,inactive
NUDC,1,0.8,8.6,6.62,inactive
NUDC,2,3.12,24.9,16.5,inactive
NUDC,3,1.38,12.6,11.5,inactive
H2AB2,1,1.26,11.9,8.2,inactive
H2AB2,2,-0.589,-1.18,2.97,inactive
H2AB2,3,-0.657,-1.66,2.56,inactive
SNRPN,1,-1.2,-5.48,3.84,inactive
SNRPN,2,-0.701,-1.97,3.87,inactive
SNRPN,3,0.282,4.95,5.6,inactive
SNRPN,4,0.376,5.61,5.89,inactive
SNRPN,5,-0.298,0.871,3.55,inactive
SNRPN,6,0.116,3.78,4.24,inactive
SNRPN,7,3.12,24.9,13.2,inactive
SNRPN,8,0.0642,3.42,4.49,inactive
SNRPN,9,-0.0329,2.74,3.91,inactive
SCGB1D1,1,0.00391,2.99,5.37,inactive
SCGB1D1,2,-0.378,0.306,3.29,inactive
SCGB1D1,3,-0.174,1.74,5.67,inactive
RELT,1,-0.66,-1.67,3.85,inactive
RELT,2,-0.0126,2.88,7.01,inactive
RELT,3,0.352,5.45,7.3,inactive
PHACTR3,1,0.399,5.78,6.41,inactive
PHACTR3,2,-0.869,-3.14,2.39,inactive
PHACTR3,3,-1.01,-4.12,0.614,inactive
ADAMTS12,1,4.17,32.3,19.3,inactive
ADAMTS12,2,1.84,15.9,9.71,inactive
ADAMTS12,3,-0.94,-3.64,2.9,inactive
ZNF850-DT,1,-0.245,1.24,4.01,inactive
ZNF850-DT,2,2.77,22.4,10.8,inactive
ZNF850-DT,3,-0.872,-3.17,2.4,inactive
SLC23A3,1,0.23,4.59,8.15,inactive
SLC23A3,2,0.389,5.71,6.79,inactive
SLC23A3,3,-0.501,-0.558,4.47,inactive
USP1,1,0.694,7.85,8.3,inactive
USP1,2,3.43,27.1,14.5,inactive
USP1,3,-0.606,-1.29,3.43,inactive
COL28A1,1,-0.415,0.047,4.21,inactive
COL28A1,2,1.14,11,7.77,inactive
COL28A1,3,-0.523,-0.709,2.95,inactive
KLHL17,1,-0.715,-2.06,3.53,inactive
KLHL17,2,2.45,20.2,14.6,inactive
KLHL17,3,-0.95,-3.72,3.51,inactive
XCL2,1,-0.248,1.22,5.67,inactive
XCL2,2,-0.122,2.11,4.73,inactive
XCL2,3,-0.573,-1.06,2.97,inactive
